Measured values from article PMC7819943, “Rice protein-binding microarrays: a tool to detect cis-acting elements near promoter regions in rice”.
Some of the results follow.

The chains behind the UniProt entries cited, without tags or fusion partners.
UniProt Q0JBA9, entry or part of it: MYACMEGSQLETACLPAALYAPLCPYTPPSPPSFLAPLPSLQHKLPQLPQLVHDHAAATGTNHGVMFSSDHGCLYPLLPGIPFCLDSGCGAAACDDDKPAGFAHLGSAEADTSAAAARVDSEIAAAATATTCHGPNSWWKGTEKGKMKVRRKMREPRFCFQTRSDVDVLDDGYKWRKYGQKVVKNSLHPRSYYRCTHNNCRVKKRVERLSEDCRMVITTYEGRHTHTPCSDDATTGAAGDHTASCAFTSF

Molecular target: OsWRKY34 (Oryza sativa, UniProt Q0JBA9 1-250)
Test: protein-binding microarray (RPBM); PBS, 2% BSA, 51.3 ng/ul salmon testes DNA, 50 uM zinc acetate, 200 nM TF, 25 C, 1 h; high values mean tight binding
Details: protein: recombinant; tags: N-terminal polyhistidine and DsRed monomer fusion (pET32a); label: CyDye5-dUTP incorporated in the synthesized complementary strand; 3' TTTTT single-stranded linker to array surface; dsDNA, one strand shown
How it was run: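 Transcription factors, each fused N-terminally to a polyhistidine tag and DsRed, were expressed in E. coli BL21-CodonPlus and purified on Ni–NTA. A custom Agilent array was made double-stranded by primer extension with Cy5-dUTP and blocked with 2% BSA. It was incubated with 200 nM protein in PBS, 2% BSA, salmon testes DNA and 50 µM zinc acetate at 25 °C for 1 h, then washed. The binding signal is per-feature fluorescence intensity (arbitrary units) read on an Axon 4000B scanner.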

Sequence | binding signal
TTATTTTCTAATTGTATTTCTATATGGACTTTAGTCTTCTCGGAGTCACCTAGTGCAG | 8830 fluorescence intensity (a.u.)
GGATTGTTACACCGTCCTGATATCAGTTATTTGATGAATCCGGAGTCACCTAGTGCAG | 9240 fluorescence intensity (a.u.)
TGTGGTTTACGCGTCCCGTTTAATTCTTGTGTTGACTCGGCGGAGTCACCTAGTGCAG | 8030 fluorescence intensity (a.u.)
CTCTTGTGTGTAGATCGATACTCCTACTGAATTACTCTGACGGAGTCACCTAGTGCAG | 9270 fluorescence intensity (a.u.)
GCCCTGATGTCCGCGTCCGTGTGCGCCGCCACCGCCCGCCCGGAGTCACCTAGTGCAG | 8090 fluorescence intensity (a.u.)
TACCGCCTGAAATCCAACATTATTATGCACTGTAATTTACCGGAGTCACCTAGTGCAG | 8170 fluorescence intensity (a.u.)
GCTACCCCGTACTTCACCGCCTGAGTCACTAACCCAAGCCCGGAGTCACCTAGTGCAG | 12500 fluorescence intensity (a.u.)
TTGTTTATTTTCGTTGTCACGGGGTATTTTCTAGTTATCTCGGAGTCACCTAGTGCAG | 11500 fluorescence intensity (a.u.)
GTCCAGCTGTTTACTGACTGATTCTGTATAATTAGTTTTTCGGAGTCACCTAGTGCAG | 8210 fluorescence intensity (a.u.)
AGCCTAGGTGAGTTCTGGATATGTCTTTGTGCTTTTTTTTCGGAGTCACCTAGTGCAG | 8300 fluorescence intensity (a.u.)
CCTTTTTGGTCCAATCCTTTTACCTTCTATTTCCTCCTCCCGGAGTCACCTAGTGCAG | 9120 fluorescence intensity (a.u.)
ACGCCGGCGGTGGCCCACGCTGCTGCTCGTCATCCTCGCCCGGAGTCACCTAGTGCAG | 8890 fluorescence intensity (a.u.)
CTCTTGTCGGCGTCTCTCTCTCGCGCCGCCGCCTCGGGTTCGGAGTCACCTAGTGCAG | 11700 fluorescence intensity (a.u.)
ACCACCAGTACATATATCGTTTCGTTTGCGCCCTACCACTCGGAGTCACCTAGTGCAG | 9130 fluorescence intensity (a.u.)
ACTCGCGAGACTCTCTCTCTCTCTCTCTCTCGCTCCTATTCGGAGTCACCTAGTGCAG | 8230 fluorescence intensity (a.u.)
CTCGCTCGCTGCTGTTTTACACTATTCACGTTTAACATTTCGGAGTCACCTAGTGCAG | 9630 fluorescence intensity (a.u.)
AGGTAGTCAAGGTGGACTTATTCCTTTTGTTTCTTCCATTCGGAGTCACCTAGTGCAG | 8900 fluorescence intensity (a.u.)
GGATGACACGTGGGCCCCACCATTTTCTAATTATTTTTTTCGGAGTCACCTAGTGCAG | 9530 fluorescence intensity (a.u.)
ATTTAGAACTGTCCATTCATCTATTCTTTTCCCGTACTAACGGAGTCACCTAGTGCAG | 9880 fluorescence intensity (a.u.)
ACTCCAATTCCATACTGGGCTTCTGTGTTCTGTCATTGCTCGGAGTCACCTAGTGCAG | 9360 fluorescence intensity (a.u.)
AATTTGTACTGAACGGGTAGGGGTATCATTGTCATTTTCTCGGAGTCACCTAGTGCAG | 14300 fluorescence intensity (a.u.)
CTTTATTCTCGATGCTTAGCTTTTCTCCCCTGCTTTGACCCGGAGTCACCTAGTGCAG | 9230 fluorescence intensity (a.u.)
AGAAACTTGTATGCCAATATGTGTCATGCGACCATCTCTGCGGAGTCACCTAGTGCAG | 8300 fluorescence intensity (a.u.)
GAAATTCATTCCAGTCATGACGTGTCAGCTCGTAGAAATTCGGAGTCACCTAGTGCAG | 8230 fluorescence intensity (a.u.)
GGTGGTGGTGGTGGGCGACGTGGACTCCATCGGGCTGACGCGGAGTCACCTAGTGCAG | 9440 fluorescence intensity (a.u.)
ACCTAAAGCCGCTTTCTAACAGTCGCAAACTCGCATTAGCCGGAGTCACCTAGTGCAG | 8040 fluorescence intensity (a.u.)
CCCCAGCCCAGTTGGGCCCAAACTGTCCATTCCAGCCATCCGGAGTCACCTAGTGCAG | 8330 fluorescence intensity (a.u.)

Sequence | binding signal
TGCCGTCCCATAGTTAGGTTCCTGTCATATAGTATTTCTGCGGAGTCACCTAGTGCAG | 8140 fluorescence intensity (a.u.)
GTGTTTTCGCATGGTTCTCTATTTTGACAAACGACGAAGCCGGAGTCACCTAGTGCAG | 8780 fluorescence intensity (a.u.)
CTCGCCGTCCATCTCTCTTCATGTAATTCACGCTCCATGTCGGAGTCACCTAGTGCAG | 12300 fluorescence intensity (a.u.)
TCCTTCTTCAGCCCCGGCACGTCCGCCTTGAACACGTGCGCGGAGTCACCTAGTGCAG | 11000 fluorescence intensity (a.u.)
ACTGCGGGAGACTAATCATCGTGTGCTTATCTTCTCTCAGCGGAGTCACCTAGTGCAG | 8960 fluorescence intensity (a.u.)
ATTTCTAAATTGTATTTCTATATGGACTCTGTTTTTTCTTCGGAGTCACCTAGTGCAG | 11100 fluorescence intensity (a.u.)
CGTTGCATTTATTAATTTACCTTTCTTCTTCTCACACAAGCGGAGTCACCTAGTGCAG | 9150 fluorescence intensity (a.u.)
CCATTCAGTTTTGCTATATAATTGTCGATAAATTTTCTTCCGGAGTCACCTAGTGCAG | 8380 fluorescence intensity (a.u.)
ATCCATTCTTTGTCTGGATTTAGGTGTATAGCTGCCTTTTCGGAGTCACCTAGTGCAG | 8830 fluorescence intensity (a.u.)
TCTTAGACGGTCCTGACTCGAGGCCCATATATATGCTGGGCGGAGTCACCTAGTGCAG | 19900 fluorescence intensity (a.u.)
CACCGTCATATATCTATGCATGGTCAATTGCTGTTTCTTTCGGAGTCACCTAGTGCAG | 10700 fluorescence intensity (a.u.)
GTTCAGCTCTACTTTTTCAGATGGAAAAAGATCTCTGCCACGGAGTCACCTAGTGCAG | 8420 fluorescence intensity (a.u.)
ACACTTGAAATACTTGGGCGGGTAGGATTGGGTCGGGCTCCGGAGTCACCTAGTGCAG | 11900 fluorescence intensity (a.u.)
TAGACCGCAGCATCTGCTTTTTGTATAATCTATTCTATTGCGGAGTCACCTAGTGCAG | 9010 fluorescence intensity (a.u.)
CCTCATCCCTTTCTCGTTCCTCTTTTCCTCTCTGTTCCTCCGGAGTCACCTAGTGCAG | 8030 fluorescence intensity (a.u.)
CCTAGCTTCTTCTTGATCCACAGTTTGTTTTGTGCGTGCACGGAGTCACCTAGTGCAG | 10300 fluorescence intensity (a.u.)
AGCTCCTTGATCCGATACGATCTGTCTATTTATCTTGTTACGGAGTCACCTAGTGCAG | 10500 fluorescence intensity (a.u.)
CTCCTCCGTCTTTCTCGCCTTTCGCCACCACCACCACCAACGGAGTCACCTAGTGCAG | 9860 fluorescence intensity (a.u.)
AAGGGCAAGCTCACCCACCCTTTCTTTCTTCACAATTTCCCGGAGTCACCTAGTGCAG | 9130 fluorescence intensity (a.u.)
CTACTCGCCGCCATTCTCGCATTCTCGCCTTCTCGCTCTCCGGAGTCACCTAGTGCAG | 10700 fluorescence intensity (a.u.)
TACATCCCATCCTCGCCGCGATTTCCTTCGCCGCCGCCGCCGGAGTCACCTAGTGCAG | 11000 fluorescence intensity (a.u.)
TGTGGAGCCATGCTGGCTCTTTTTTTTTGCCACGTCACATCGGAGTCACCTAGTGCAG | 8850 fluorescence intensity (a.u.)
AGCTCACACCACATGGCGCCATTTCTCCATTCTCTCCATGCGGAGTCACCTAGTGCAG | 9810 fluorescence intensity (a.u.)
GTGATTTTTTGGCCGCACCAATTCCCTGTCCACGTTCGTGCGGAGTCACCTAGTGCAG | 11000 fluorescence intensity (a.u.)
TGCTTTTGTATTTTTTTTGCTGTGTATATATCATAAACTTCGGAGTCACCTAGTGCAG | 8550 fluorescence intensity (a.u.)
GCATACTTGAGCATGTTCTACTTCTTCTAGCCATTGATTTCGGAGTCACCTAGTGCAG | 10200 fluorescence intensity (a.u.)
TTTTCCTGTGTTTTGTAATCCTCTGTTTTACACTTCAATTCGGAGTCACCTAGTGCAG | 10100 fluorescence intensity (a.u.)

A different layout for part of the listing above:
Sequence	binding signal
ACACTTGAAATACTTGGGCGGGTAGGATTGGGTCGGGCTCCGGAGTCACCTAGTGCAG	11900 fluorescence intensity (a.u.)
TAGACCGCAGCATCTGCTTTTTGTATAATCTATTCTATTGCGGAGTCACCTAGTGCAG	9010 fluorescence intensity (a.u.)

Quoted at random: 2 entries already listed.
Sequence | binding signal
AAGGGCAAGCTCACCCACCCTTTCTTTCTTCACAATTTCCCGGAGTCACCTAGTGCAG | 9130 fluorescence intensity (a.u.)
ATCCATTCTTTGTCTGGATTTAGGTGTATAGCTGCCTTTTCGGAGTCACCTAGTGCAG | 8830 fluorescence intensity (a.u.)
